42 sequences from PMC7819943, “Rice protein-binding microarrays: a tool to detect cis-acting elements near promoter regions in rice” can be followed below.

The list shows a part of the results.

The target in this assay is T1, OsSMF1 (Oryza sativa, UniProt Q6ZLB0 1-436).
T1 sequence: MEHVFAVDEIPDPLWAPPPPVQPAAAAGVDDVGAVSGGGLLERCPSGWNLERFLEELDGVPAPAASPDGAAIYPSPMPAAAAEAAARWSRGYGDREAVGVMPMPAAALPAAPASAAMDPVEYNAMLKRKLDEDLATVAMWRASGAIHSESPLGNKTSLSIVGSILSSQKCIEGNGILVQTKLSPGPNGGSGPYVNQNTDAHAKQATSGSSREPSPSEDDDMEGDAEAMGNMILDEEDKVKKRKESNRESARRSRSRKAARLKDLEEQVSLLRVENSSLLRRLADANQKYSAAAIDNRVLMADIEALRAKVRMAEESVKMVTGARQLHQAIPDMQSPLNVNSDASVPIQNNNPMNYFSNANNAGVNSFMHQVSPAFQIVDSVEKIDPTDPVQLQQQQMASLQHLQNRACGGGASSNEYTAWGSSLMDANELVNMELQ
Put plainly: protein-binding microarray (RPBM); PBS, 2% BSA, 51.3 ng/ul salmon testes DNA, 50 uM zinc acetate, 200 nM TF, 25 C, 1 h; high values mean tight binding. Particulars: protein: recombinant; tags: N-terminal polyhistidine and DsRed monomer fusion (pET32a); chain copies: 2; label: CyDye5-dUTP incorporated in the synthesized complementary strand; 3' TTTTT single-stranded linker to array surface; dsDNA, one strand shown. The method, boiled down: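 A custom Agilent array was converted to double-stranded form by primer extension with Cy5-dUTP and blocked with 2% BSA. Protein at 200 nM in PBS with 2% BSA, salmon testes DNA and 50 µM zinc acetate was applied for 1 h at 25 °C, followed by washing. The proteins were polyhistidine–DsRed N-terminal fusions of transcription factors, expressed in E. coli BL21-CodonPlus and Ni–NTA-purified. The binding signal is per-feature fluorescence intensity (arbitrary units) from an Axon 4000B scanner.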
For “TGGTGATAATGTCATTCTGTTATTACAGAGGTCAACGTGTCGGAGTCACCTAGTGCAG”, the binding signal was 3320 fluorescence intensity (a.u.).

In the case of “ACACCACCCGCCACGCACGTTAACCACGCCGACACGTGGGCGGAGTCACCTAGTGCAG”, the binding signal was 13000 fluorescence intensity (a.u.). Turning to “TCGATTCGAATCGATCCAGATCGATATATACGTAAGCAACCGGAGTCACCTAGTGCAG”, the binding signal is 3780 fluorescence intensity (a.u.).

Regarding “AACATACTAATTGCATTTTATTAGACGCAGTATTGAGTTCCGGAGTCACCTAGTGCAG”, the binding signal is 24800 fluorescence intensity (a.u.). The figure for “GTTCGATATTGGGAAGTTGTTAATGTGAACTGTTCTTCAGCGGAGTCACCTAGTGCAG” is 3300 fluorescence intensity (a.u.); for “ACGGCTAGGATAAGCTCCAGTTAAGACGATCCGACGCGGGCGGAGTCACCTAGTGCAG” it is 19800 fluorescence intensity (a.u.). The figure for “CGTTGTCGCAGTTCTTTATTGACAAGACCTCGAGGGACCTCGGAGTCACCTAGTGCAG” is 22500 fluorescence intensity (a.u.); for “CATGAATTACTGGCATCTTGTAACGGATCCCCTCGTCAAACGGAGTCACCTAGTGCAG” it is 3570 fluorescence intensity (a.u.); for “TTTTCTTGTTTCGCATGCGCTGAGTATATCCCTCCAATTGCGGAGTCACCTAGTGCAG” it is 3250 fluorescence intensity (a.u.). The figure for “ACTACAAATAGATCGAACAGAAACAGAGCATCACGACGACCGGAGTCACCTAGTGCAG” is 40300 fluorescence intensity (a.u.). As for “TCCCATGCCACCAATATTGGCCCACTGTCACCTCCTAACCCGGAGTCACCTAGTGCAG”, the binding signal was 3160 fluorescence intensity (a.u.). The same measure for “AATATGACTCAGTAGCACGAATGACTCCGTGGCCCAATGGCGGAGTCACCTAGTGCAG”: 5230 fluorescence intensity (a.u.); for “CCGCCGGAACCAGCCTGGCGGCGGTGACGGCGCCACCACGCGGAGTCACCTAGTGCAG”: 3200 fluorescence intensity (a.u.); for “AAAAGTGACATCAGTACCATAACCTACGAAATTGACAGTTCGGAGTCACCTAGTGCAG”: 3300 fluorescence intensity (a.u.). The figure for “TTGTTGTCCCGTGTCTCCGCCGTCGCGTCACCGCCCAGCACGGAGTCACCTAGTGCAG” is 8140 fluorescence intensity (a.u.); for “GGAAACAGCATCGAACGTCACACGTTCGTCCACGTTATCGCGGAGTCACCTAGTGCAG” it is 4760 fluorescence intensity (a.u.). Take “GGTGTGGCGTGAGCGTGACACGGTGTCAACTGTCAAGTGTCGGAGTCACCTAGTGCAG”: the binding signal was 3400 fluorescence intensity (a.u.). The figure for “ACCATGGATGGATTCCCTCTCCTACCACCACACGTACACCCGGAGTCACCTAGTGCAG” is 4090 fluorescence intensity (a.u.); for “TGAGAGGCTGGGCCCACGCGACATCGACGAAGCGGGCCCACGGAGTCACCTAGTGCAG” it is 16400 fluorescence intensity (a.u.); for “CAAATTTAAAATCCGTACTGACTCATCTACTCCCCTTATGCGGAGTCACCTAGTGCAG” it is 26100 fluorescence intensity (a.u.). Take “CGTTGAGGATGATGTTGGTGACGGGGTCGGCGAGGCCAAACGGAGTCACCTAGTGCAG”: the binding signal was 3750 fluorescence intensity (a.u.). Regarding “TGACCATTCTAAAACGATCATACACGTGTGAAACATTTATCGGAGTCACCTAGTGCAG”, the binding signal was 8620 fluorescence intensity (a.u.). As to “ACTTGTTTCTCCTCCACGTCGGTCGAGTCCGAGTCCACCGCGGAGTCACCTAGTGCAG”, the binding signal was 6280 fluorescence intensity (a.u.). With “CAAATCCCCAGCCTCCCTCTATAGCTTTGCTATGCTGACTCGGAGTCACCTAGTGCAG”, the binding signal is 6660 fluorescence intensity (a.u.). The figure for “ACGCGGCACGCGCGCAGTGTCAGAGTCACAGGCCAGTCACCGGAGTCACCTAGTGCAG” is 4820 fluorescence intensity (a.u.). The figure for “GGAGTTGTTGCGTGACTTGCGTCCTGCTGCTGCATCGTTCCGGAGTCACCTAGTGCAG” is 7330 fluorescence intensity (a.u.). As for “TATTCCTTTAGGCTATAAACACATCAGCATGATAAAGAGACGGAGTCACCTAGTGCAG”, the binding signal was 4180 fluorescence intensity (a.u.).

On to “CTCTTCCTCCTCCGCTCCGCTCCACCTCGGTTGACCACCACGGAGTCACCTAGTGCAG”, for which the binding signal is 3170 fluorescence intensity (a.u.). The same measure for “TTCAGATTTCTGATGTGTGAACTGTGATCCCTGCTTGCTTCGGAGTCACCTAGTGCAG”: 3380 fluorescence intensity (a.u.); for “CGGTGCTCTTCTCGCTGCCGGTGGCGTACCCGGTCGCCAACGGAGTCACCTAGTGCAG”: 3780 fluorescence intensity (a.u.). For “TATATTGGGGACGGAGTTAGTACGTGTACGTATAATCTACCGGAGTCACCTAGTGCAG”, the binding signal is 5680 fluorescence intensity (a.u.). The same measure for “CGGTAGGGCCCACATGTCTGTCGGGGTGGGCGGTGGTGGTCGGAGTCACCTAGTGCAG”: 5220 fluorescence intensity (a.u.). With “CCCTCCTCCCTCTCCCTCAGCCATCCTCCTCCTCCGCCGCCGGAGTCACCTAGTGCAG”, the binding signal is 5200 fluorescence intensity (a.u.).

“AATGTGACCACGTCATCCCCTTCTTTCCCTTTCCCCTCTTCGGAGTCACCTAGTGCAG”: the binding signal is 33300 fluorescence intensity (a.u.). In the case of “TGTTCATCCAAGGAGATTATCAGGTTGTTTGTATATATAACGGAGTCACCTAGTGCAG”, the binding signal is 26400 fluorescence intensity (a.u.). Consider “CCCTGCCACACCCTCGGTCCCACGTGTCAGTGTGTTGCACCGGAGTCACCTAGTGCAG”, for which the binding signal is 15200 fluorescence intensity (a.u.).

On to “GAGCGAATAAAAGTTTAGGGGAAACTGCTCATTTCAGCTTCGGAGTCACCTAGTGCAG”, for which the binding signal was 29700 fluorescence intensity (a.u.). For the sequence “TGCAGCACGGACTCCAAGACGTAATATGTGTATGACAGGTCGGAGTCACCTAGTGCAG”, the binding signal was 4060 fluorescence intensity (a.u.).

Consider “TGAAGTACGTCGCGCCGAGCTCGGCCGCCACGGCGGAGTACGGAGTCACCTAGTGCAG”, for which the binding signal is 3650 fluorescence intensity (a.u.). The figure for “TCACACCCCATCTATGTTGTCGCTCCACATAGGCTAGGCCCGGAGTCACCTAGTGCAG” is 3260 fluorescence intensity (a.u.); for “ACGCTTTCGCCGTGCCAAAGCCGTGACGTGCGCGCGCGTTCGGAGTCACCTAGTGCAG” it is 7370 fluorescence intensity (a.u.); for “AGCTTGCATATAGCTGTCCAGATATGTTTGGTTGCTGACACGGAGTCACCTAGTGCAG” it is 3640 fluorescence intensity (a.u.).
